# PubChem BioAssay AID1259308 – NCATS | 2017
# Aim: 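Candidate targets for better recombinant protein yield in mammalian cells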 (primary screen)
# System: human HEK293 embryonic kidney cells stably expressing firefly luciferase (HEK-CMV-Luc2-Hygro)
# Reagents: single siRNA against human genes, 0.8 pmol siRNA per well
# Timing: 72 h
# Read-out: 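Luciferase light (ONE-Glo) measured on one replicate plate set and viability (CellTiter-Glo) on the other, scaled to a negative control siRNA, with robust z-scores and luciferase per cell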
# Reading the numbers: total luciferase, z-score and total luciferase, % of control: higher = more reporter protein produced; luciferase per cell, z-score: higher = more reporter output per viable cell; viable cells, % of control: higher = more viable cells
# Active means: 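An siRNA counts as active if its total luciferase robust z-score exceeds 3; genes with two or more such siRNAs out of three were retested with fresh siRNAs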
# Calls: active = raised luciferase; inactive = no rise
# The deposit covers about 59,000 reagents; below is an unselected part. Of all reagents, about 1,510 (2.6%) were called active. 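Calls use total luciferase alone and ignore viability, so some active siRNAs may act by altering cell number.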 Entries without a mark were called inactive. The numbers tell different reagents against one gene apart. Reagent sequences are not shown.
gene symbol,reagent,"total luciferase, z-score","total luciferase, % of control","luciferase per cell, z-score","viable cells, % of control"
CXCL14,1,-0.248,76.9,-0.126,88.9
CXCL14,2,-0.393,74.1,-0.537,95.3
CXCL14,3,1.66,115,0.975,99.3
ADGRG2,1,-0.762,66.7,-0.739,90.6
ADGRG2,2,0.716,96.1,0.659,90.3
ADGRG2,3,-1.05,61,-1.04,89.5
KRT75,1,-0.217,77.6,-0.43,97.1
KRT75,2,1.47,111,1.38,86.3
KRT75,3,-0.197,78,-0.742,106
IMPACT,1,-0.393,74.1,-0.379,91.5
IMPACT,2,-0.35,74.9,-0.0418,84.7
IMPACT,3,-0.275,76.4,-0.694,102
CYLC2,1,1.77,117,1.25,94
CYLC2,2,-0.473,72.5,-0.635,95.7
CYLC2,3,-1.19,58.3,-0.462,73.6
SRSF1,1,1.34,109,1.43,83.3
SRSF1,2,1.31,108,1.52,80.9
SRSF1,3,1.45,111,2.73,60.2
LOC729866 (retired record),1,0.902,99.8,2.06,64.9
LOC729866 (retired record),2,1.43,110,2.21,68.9
LOC729866 (retired record),3,-0.0246,81.4,0.726,75.1
HARS1,1,1.44,111,1.34,86.9
HARS1,2,-2.72,27.8,-1.7,48.7
HARS1,3,1.13,104,0.99,89.9

2 successive records from above, for reference:
gene symbol,reagent,"total luciferase, z-score","total luciferase, % of control","luciferase per cell, z-score","viable cells, % of control"
KRT75,2,1.47,111,1.38,86.3
KRT75,3,-0.197,78,-0.742,106
